Where “and” joins values, the source holds several entries; their conditions need not be identical. Equal values may be shown once. For part of these data: This list holds what a sample rich in hits left over. Inconclusive results are not listed. The list shows a part of the results, in another mix than the full data. Calls of active or inactive are those of the source. Unless noted, the call rests on the fitted dose curve; in most records, active means well fitted curve in the direction sought with a large enough effect in the repeat runs; inconclusive means weak or mixed curves; inactive means no such curve, though single readings can be large; an effect the other way counts as inactive or inconclusive.
On the % scale 0 is the no-effect control and ±100 the full control effect.

One test is described as follows: qHTS assay to identify small molecule agonists of the hypoxia (HIF-1) signaling pathway - cell viability counter screen (AID 1224844; calls by dose curve; further: nearly all actives have a fitted effect of over 50% in size). The conditions noted are these: HRE-bla ME-180 viability, CellTiter-Glo luminescence, 17 h; at 76.8 µM (top of the series). An outline of the steps:
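Multiplexed with the HRE beta-lactamase assay, this viability read used CellTiter-Glo luminescence (30 min, RT) on HRE-bla ME-180 cells treated 17 hrs with compounds in 0.5% dialyzed FBS medium.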
Take `O=C1Cc2ccccc2C1`: the activity change, negative = cytotoxicity was inactive: 0.141%.
As to `CC(=O)N(C)C`, the activity change, negative = cytotoxicity is inactive: 13% and inactive: 1.51%.
The same measure, in the same setting: in the case of `COc1ccc2ccccc2c1` it was inactive: 1.32%.
As for `Nc1ccc(N)c([N+](=O)[O-])c1`, the activity change, negative = cytotoxicity was inactive: 11%.
For `CCCCCCCC1CCC(=O)O1` (stereo not drawn), the activity change, negative = cytotoxicity was inactive: 0.0907%.
The same measure, in the same setting: in the case of `CS(=O)(=O)c1ccc([C@@H](CC2CCCC2)C(=O)Nc2cnccn2)cc1Cl` it was inactive: -12.2%.

The next test can be described thus: qHTS assay to identify small molecule agonists of H2AX - cell viability counter screen (AID 1224847; calls by dose curve;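 further: wild-type CHO-K1 cells; top concentration of the series differs between compounds; nearly all actives have a fitted effect of over 30% in size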). The conditions noted are these: CHO-K1 viability, CellTiter-Glo luminescence, 3 h; at 154 µM (top of the series). An outline of the steps: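 CHO-K1 wt, 1000 cells/well, o/n 37C; cpds 15 conc, 3 h 37C, 0.76% DMSO; CellTiter-Glo, 30 min RT, luminescence.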
For `O=C1Cc2ccccc2C1`, the activity change, negative = cytotoxicity is inactive: 0.554%.
As to `CC(=O)N(C)C`, the activity change, negative = cytotoxicity is inactive: 1.6% and inactive: -0.329%.
The same measure, in the same setting: in the case of `COc1ccc2ccccc2c1` it was inactive: -0.969%.

The next test in a line: qHTS RealTime-Glo MT Cell Viability Assay in HepG2 cells - 24 hour (AID 1224867). Further: nearly all actives have a fitted effect of over 50% in size. The conditions noted are these: RealTime-Glo luminescence; at 76.8 µM (top of the series). Put shortly: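 Viability was tracked continuously by NanoLuc luminescence from prosubstrate reduced by living HepG2 cells, at successive time points over 40 h of compound exposure. Cells with reagent were preincubated 5 h at 37 °C before compound addition.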
With `O=C1Cc2ccccc2C1`, the activity change, negative = cytotoxicity is inactive: -3.02%.
The same measure, in the same setting: in the case of `CC(=O)N(C)C` it was inactive: 2.07% and inactive: 2.17%; in that of `COc1ccc2ccccc2c1`, inactive: 0.183%; in that of `Nc1ccc(N)c([N+](=O)[O-])c1`, inactive: -11.6%.
Same read-out and setting: in the case of `CCCCCCCC1CCC(=O)O1` (stereo not drawn) it was inactive: 1.11%.

The next test in a line: qHTS RealTime-Glo MT Cell Viability Assay in HEK293 cells - 32 hour (AID 1224868). Further: top concentration of the series differs between compounds; nearly all actives have a fitted effect of over 50% in size. Particulars: RealTime-Glo luminescence; at 76.8 µM (top of the series). Put shortly: (§1)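 Viability tracked continuously by luminescence as live cells reduce a prosubstrate for NanoLuc; HEK293 cells preincubated 5 h, compound-treated at 37 C, and read at 0, 8, 16, 24, 32 and 40 h.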
Consider `O=C1Cc2ccccc2C1`, for which the activity change, negative = cytotoxic was inactive: 17.5%.
Take `CC(=O)N(C)C`: the activity change, negative = cytotoxic was inactive: 4.46% and inactive: 8.94%.
Consider `COc1ccc2ccccc2c1`, for which the activity change, negative = cytotoxic was inactive: 4.99%.
For the molecule `CCCCCCCC1CCC(=O)O1` (stereo not drawn), the activity change, negative = cytotoxic was inactive: 3.6%.

The nature of the next test: qHTS RealTime-Glo MT Cell Viability Assay in HepG2 cells - 40 hour (AID 1224870). Further: nearly all actives have a fitted effect of over 50% in size. Particulars: RealTime-Glo luminescence; at 76.8 µM (top of the series). An excerpt: National Center for Advancing Translational Sciences [NCATS]
NIH Chemical Genomics Center [NCGC]
U.S. Environmental Protection Agency [EPA]
National Institutes of Environmental Health Sciences [NIEHS]
National Toxicology Program [NTP]
U.S. Food and Drug Administration [FDA]
Measure of cell viability is critical in the cell-base assay. Analysis of cell viability is necessary for the characterization of cell responses to cytotoxic drugs and environmental stress. A RealTime-Glo MT Cell Viability Assay to monitor cell viability in real time of continues cell culture during 40 hours of compound treatment was used to screen Tox21 10K library compounds in HepG2 cells. The RealTime-Glo MT Cell Viability Assay is a nonlytic, homogeneous, bioluminescent method to measure cell viability in real time using a simple, plate-based method. The assay involves adding NanoLuc luciferase and a cell-permeant prosubstrate to cells in culture. Viable cells reduce the proprietary prosubstrate to generate a substrate for NanoLuc luciferase. This substrate diffuses from cells into the surrounding culture medium, where it is rapidly used by the NanoLuc Enzyme to produce a luminescent signal. The signal correlates with the number of viable cells, making the assay well suited for cytotoxicity studies.
Tox21 Assay Protocol Summary:
The mixture of HepG2 cell suspension and reagents were dispensed at 600cells/6 ul/well in 1536-well tissue culture treated black solid bottom plates using a Multidrop dispenser. After the assay plates were incubated at a 37 C/5% CO2 incubator for 5 hours, 23 nL of compounds dissolved in DMSO, positive and negative controls was transferred to the assay plate by a pintool work station. The plates were incubated at 37 C for 40 hours. The luminescence intensity were measured at 0h, 8h, 16h, 24h, 32h and 40h time points using ViewLux plate reader during compound treatment.
As to `O=C1Cc2ccccc2C1`, the activity change, negative = cytotoxic is inactive: -9.45%.
As for `CC(=O)N(C)C`, the activity change, negative = cytotoxic is inactive: 1.14% and inactive: 0.517%.
Same read-out and setting: in the case of `COc1ccc2ccccc2c1` it was inactive: 0.806%; in that of `Nc1ccc(N)c([N+](=O)[O-])c1`, inactive: -5.8%.
Same read-out and setting: in the case of `CCCCCCCC1CCC(=O)O1` (stereo not drawn) it was inactive: 4%; in that of `CS(=O)(=O)c1ccc([C@@H](CC2CCCC2)C(=O)Nc2cnccn2)cc1Cl`, inactive: -20.9%.

The next test is described as follows: qHTS RealTime-Glo MT Cell Viability Assay in HEK293 cells - 16 hour (AID 1224872). Particulars: RealTime-Glo luminescence; at 76.8 µM (top of the series). Put shortly:
as §1
Consider `O=C1Cc2ccccc2C1`, for which the activity change, negative = cytotoxicity was inactive: 22.5%.
`CC(=O)N(C)C`: the activity change, negative = cytotoxicity is inactive: 5.45% and inactive: 9.82%.
The same measure, in the same setting: for `COc1ccc2ccccc2c1` the value was inactive: 1.59%; for `Nc1ccc(N)c([N+](=O)[O-])c1`, inactive: 7.67%; for `CCCCCCCC1CCC(=O)O1` (stereo not drawn), inactive: 0.773%.

A further test is described as follows: qHTS RealTime-Glo MT Cell Viability Assay in HepG2 cells - 8 hour (AID 1224873). Further: nearly all actives have a fitted effect of over 55% in size. The conditions noted are these: RealTime-Glo luminescence; at 76.8 µM (top of the series). Put shortly:
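Real-time viability: cells seeded at 600 per well together with NanoLuc and cell-permeant prosubstrate, compounds added after 5 h incubation. Luminescence tracked at 0, 8, 16, 24, 32 and 40 h of exposure.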
Turning to `O=C1Cc2ccccc2C1`, the viability change, negative = cytotoxic is inactive: 4.33%.
Take `CC(=O)N(C)C`: the viability change, negative = cytotoxic is inactive: 0.603% and inactive: -0.9%.
`COc1ccc2ccccc2c1`: the viability change, negative = cytotoxic is inactive: 2.2%.
Still for that read-out and setting: in the case of `CCCCCCCC1CCC(=O)O1` (stereo not drawn) it was inactive: 0.793%.

Source of the values: PubChem BioAssay (Tox21).
